Consider 1 molecule from patent US20240287168A1 (SHANGHAI JEMINCARE PHARMACEUTICAL, published 2024).

The target in the test is T1, Mouse VEGF-Bio (mouse) (UniProt Q00731).
T1 sequence (biotinylated (site not stated), looked up): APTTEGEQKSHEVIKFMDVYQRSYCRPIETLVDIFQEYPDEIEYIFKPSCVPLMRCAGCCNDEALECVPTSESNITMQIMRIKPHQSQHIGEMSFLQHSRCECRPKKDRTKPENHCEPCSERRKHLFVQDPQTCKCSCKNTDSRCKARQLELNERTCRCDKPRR
Briefly: flow cytometry, yeast-displayed VHH.

No constants are given. Whether binding was seen depends on the method and setting. Some binding calls cover weakened binding; strength is not graded here.

B1: Y20A6, anti-human VEGF165 single domain heavy chain antibody clone displayed on yeast (VHH, not shown: large carriers; small tags and cut ends)
VHH: AVQLVESGGGLVQAGGSARLSCAASGSTSDIVSMAWYRQAPGKERDLVAAVFAEDWRYVEDSVRGRFTISRDNTKNTVDLQMNNLKPEDTAIYYCNVRLRITDERRRERLDYWGQGTQVTVSS
With B1, the binding entry is reported as “binds”.
